Results reported in patent US11026419B2, “Silver- and copper-chelating ionic liquids, polymers, and gels, and uses thereof” (Massachusetts Institute of Technology, priority 2016, dated 2021).

Test: Extraction of Fe(III) from aqueous solution into ionic liquid, ICP-OES
Format: physicochemical
Settings: for % extracted: 1 mL ionic liquid, 1 mL aqueous solution; for [Fe (III)] after extraction: aqueous phase
[1] = [Fe(III)] before extraction 53.48 ppm
[2] = [Fe(III)] before extraction 501.53 ppm
[3] = [Fe(III)] before extraction 5860.33 ppm

Q: Which “% extracted” value ([Fe(III)] before extraction 0.06 ppm) does the source give for “N-hexylethylenediaminium bis(trifluoroethanesulfonyl)amide [[HHex][Tf2N]]” here?
A: 100%

Q: And the “% extracted” value ([Fe(III)] before extraction 0.48 ppm)?
A: 100%

Q: And the “% extracted” value ([Fe(III)] before extraction 4.79 ppm)?
A: 100%

Q: And the “% extracted” value [1]?
A: 92.5%

Q: What about the “[Fe (III)] after extraction” value [1] of the same substance?
A: 4.14 ppm

Q: And the “% extracted” value [2]?
A: 99.4%

Q: And the “[Fe (III)] after extraction” value [2]?
A: 2.81 ppm

Q: And the “% extracted” value [3]?
A: 99.1%

Q: What about the “[Fe (III)] after extraction” value [3] of the same substance?
A: 54.60 ppm
